# In the supplement of paper PMC12819154, “High-throughput peptide-centric local stability assay extends protein–ligand identification to membrane proteins, tissues and bacteria” (Nature Structural & Molecular Biology, 2025):
# Amino acid sequences for entries named in this document (tags omitted). A change or cut given only in a name is not applied to a line headed by its entry.
# UniProt O43172: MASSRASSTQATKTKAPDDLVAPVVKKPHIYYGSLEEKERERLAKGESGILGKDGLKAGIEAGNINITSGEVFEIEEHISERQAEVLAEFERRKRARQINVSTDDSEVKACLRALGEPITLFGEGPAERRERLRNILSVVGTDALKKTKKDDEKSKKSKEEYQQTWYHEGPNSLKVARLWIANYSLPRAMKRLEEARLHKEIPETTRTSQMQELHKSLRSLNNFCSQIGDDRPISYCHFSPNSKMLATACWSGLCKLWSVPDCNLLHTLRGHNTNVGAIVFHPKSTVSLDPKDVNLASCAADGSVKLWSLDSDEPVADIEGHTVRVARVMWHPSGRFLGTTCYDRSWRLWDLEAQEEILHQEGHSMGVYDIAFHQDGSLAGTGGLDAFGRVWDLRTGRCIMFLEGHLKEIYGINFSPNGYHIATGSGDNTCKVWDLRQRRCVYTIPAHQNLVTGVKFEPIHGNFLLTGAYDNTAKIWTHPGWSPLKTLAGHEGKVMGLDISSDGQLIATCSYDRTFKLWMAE
# UniProt O60869: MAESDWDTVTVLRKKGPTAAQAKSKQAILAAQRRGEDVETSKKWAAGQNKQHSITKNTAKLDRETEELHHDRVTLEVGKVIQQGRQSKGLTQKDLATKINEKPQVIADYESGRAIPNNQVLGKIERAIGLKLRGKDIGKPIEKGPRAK
# UniProt O43521, whole entry, looked up: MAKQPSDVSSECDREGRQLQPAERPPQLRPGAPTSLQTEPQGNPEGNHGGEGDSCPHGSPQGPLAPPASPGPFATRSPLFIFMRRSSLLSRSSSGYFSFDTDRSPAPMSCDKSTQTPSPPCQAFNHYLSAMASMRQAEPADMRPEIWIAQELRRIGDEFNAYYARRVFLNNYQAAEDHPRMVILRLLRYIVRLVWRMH
# UniProt O43768: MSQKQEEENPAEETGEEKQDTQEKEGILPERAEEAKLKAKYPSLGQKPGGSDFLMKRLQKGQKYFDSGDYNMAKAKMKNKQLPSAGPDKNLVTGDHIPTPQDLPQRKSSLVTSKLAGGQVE
# UniProt O43252: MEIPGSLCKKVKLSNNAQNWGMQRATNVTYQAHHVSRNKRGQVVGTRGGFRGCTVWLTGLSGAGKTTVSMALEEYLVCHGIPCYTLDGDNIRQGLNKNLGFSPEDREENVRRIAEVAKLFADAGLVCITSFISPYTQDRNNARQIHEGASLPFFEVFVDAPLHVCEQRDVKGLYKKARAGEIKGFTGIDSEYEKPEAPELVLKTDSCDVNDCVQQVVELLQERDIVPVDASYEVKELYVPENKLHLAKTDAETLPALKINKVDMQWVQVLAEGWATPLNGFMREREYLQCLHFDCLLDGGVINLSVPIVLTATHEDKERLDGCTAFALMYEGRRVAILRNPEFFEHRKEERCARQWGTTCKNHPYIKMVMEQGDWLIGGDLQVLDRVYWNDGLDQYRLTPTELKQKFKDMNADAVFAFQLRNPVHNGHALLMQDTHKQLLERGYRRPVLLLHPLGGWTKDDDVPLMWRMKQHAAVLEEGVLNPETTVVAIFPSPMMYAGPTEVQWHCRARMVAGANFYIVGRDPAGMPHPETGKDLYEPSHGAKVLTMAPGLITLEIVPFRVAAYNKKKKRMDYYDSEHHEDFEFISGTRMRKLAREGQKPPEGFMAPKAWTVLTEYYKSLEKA
# UniProt O75122: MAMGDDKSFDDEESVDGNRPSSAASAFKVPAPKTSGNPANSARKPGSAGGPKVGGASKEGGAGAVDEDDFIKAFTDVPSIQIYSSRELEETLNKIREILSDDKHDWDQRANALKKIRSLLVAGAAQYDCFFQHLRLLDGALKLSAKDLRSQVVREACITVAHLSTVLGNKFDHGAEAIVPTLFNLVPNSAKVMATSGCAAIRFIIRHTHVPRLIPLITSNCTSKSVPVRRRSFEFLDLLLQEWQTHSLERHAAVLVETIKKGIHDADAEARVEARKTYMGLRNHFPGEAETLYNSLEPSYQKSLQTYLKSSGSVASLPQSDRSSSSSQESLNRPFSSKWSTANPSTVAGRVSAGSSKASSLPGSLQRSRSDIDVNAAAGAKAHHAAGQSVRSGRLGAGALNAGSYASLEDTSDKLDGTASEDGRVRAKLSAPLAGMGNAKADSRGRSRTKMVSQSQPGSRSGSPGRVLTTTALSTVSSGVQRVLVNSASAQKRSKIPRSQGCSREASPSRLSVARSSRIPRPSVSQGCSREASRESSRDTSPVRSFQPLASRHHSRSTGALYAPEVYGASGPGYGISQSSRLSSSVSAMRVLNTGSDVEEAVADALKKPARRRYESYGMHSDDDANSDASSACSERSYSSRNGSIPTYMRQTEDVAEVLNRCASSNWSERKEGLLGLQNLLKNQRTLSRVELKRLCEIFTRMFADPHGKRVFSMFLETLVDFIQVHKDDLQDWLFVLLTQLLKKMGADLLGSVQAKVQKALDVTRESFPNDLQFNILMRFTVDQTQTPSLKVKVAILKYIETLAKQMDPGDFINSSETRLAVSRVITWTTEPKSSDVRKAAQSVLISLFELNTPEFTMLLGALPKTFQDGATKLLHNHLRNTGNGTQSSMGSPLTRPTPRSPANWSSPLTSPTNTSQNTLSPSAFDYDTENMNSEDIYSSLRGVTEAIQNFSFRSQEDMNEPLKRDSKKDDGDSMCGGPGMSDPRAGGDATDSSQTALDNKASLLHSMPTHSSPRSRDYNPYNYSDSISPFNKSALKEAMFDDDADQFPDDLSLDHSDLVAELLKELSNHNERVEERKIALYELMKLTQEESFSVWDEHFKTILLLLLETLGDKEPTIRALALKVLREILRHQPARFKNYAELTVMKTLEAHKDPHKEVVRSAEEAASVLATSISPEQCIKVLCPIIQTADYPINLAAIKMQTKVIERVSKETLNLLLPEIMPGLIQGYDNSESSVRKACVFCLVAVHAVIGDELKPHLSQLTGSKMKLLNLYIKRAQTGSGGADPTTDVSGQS
# UniProt O43143: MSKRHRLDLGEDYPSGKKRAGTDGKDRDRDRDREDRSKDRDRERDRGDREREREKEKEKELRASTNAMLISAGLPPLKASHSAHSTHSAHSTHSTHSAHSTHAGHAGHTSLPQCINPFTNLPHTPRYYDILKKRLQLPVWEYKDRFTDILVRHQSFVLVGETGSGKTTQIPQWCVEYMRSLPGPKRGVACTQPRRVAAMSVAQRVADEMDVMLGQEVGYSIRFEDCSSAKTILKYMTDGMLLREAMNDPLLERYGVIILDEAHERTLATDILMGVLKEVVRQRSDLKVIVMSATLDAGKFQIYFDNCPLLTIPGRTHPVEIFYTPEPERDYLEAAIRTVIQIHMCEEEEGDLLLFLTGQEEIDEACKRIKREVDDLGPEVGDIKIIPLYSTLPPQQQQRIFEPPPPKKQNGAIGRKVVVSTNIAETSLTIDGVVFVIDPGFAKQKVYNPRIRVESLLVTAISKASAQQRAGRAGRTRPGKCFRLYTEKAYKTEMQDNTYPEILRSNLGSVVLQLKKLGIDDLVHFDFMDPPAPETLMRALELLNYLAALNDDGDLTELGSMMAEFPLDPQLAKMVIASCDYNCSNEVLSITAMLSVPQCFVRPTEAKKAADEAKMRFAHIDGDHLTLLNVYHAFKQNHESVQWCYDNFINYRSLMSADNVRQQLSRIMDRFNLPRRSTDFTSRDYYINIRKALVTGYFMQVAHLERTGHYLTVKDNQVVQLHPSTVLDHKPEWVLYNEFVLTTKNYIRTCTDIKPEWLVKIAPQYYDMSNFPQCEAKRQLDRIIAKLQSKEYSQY
# UniProt O43414: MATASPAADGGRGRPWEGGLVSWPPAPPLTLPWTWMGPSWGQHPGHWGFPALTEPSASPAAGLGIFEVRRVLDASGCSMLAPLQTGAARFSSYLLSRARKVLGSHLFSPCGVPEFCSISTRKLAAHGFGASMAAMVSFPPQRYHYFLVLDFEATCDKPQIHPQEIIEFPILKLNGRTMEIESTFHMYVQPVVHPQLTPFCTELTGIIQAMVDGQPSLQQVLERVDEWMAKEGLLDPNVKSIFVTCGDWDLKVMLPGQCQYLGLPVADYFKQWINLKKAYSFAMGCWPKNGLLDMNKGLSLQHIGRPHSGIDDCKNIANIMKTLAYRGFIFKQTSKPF
# UniProt O75151: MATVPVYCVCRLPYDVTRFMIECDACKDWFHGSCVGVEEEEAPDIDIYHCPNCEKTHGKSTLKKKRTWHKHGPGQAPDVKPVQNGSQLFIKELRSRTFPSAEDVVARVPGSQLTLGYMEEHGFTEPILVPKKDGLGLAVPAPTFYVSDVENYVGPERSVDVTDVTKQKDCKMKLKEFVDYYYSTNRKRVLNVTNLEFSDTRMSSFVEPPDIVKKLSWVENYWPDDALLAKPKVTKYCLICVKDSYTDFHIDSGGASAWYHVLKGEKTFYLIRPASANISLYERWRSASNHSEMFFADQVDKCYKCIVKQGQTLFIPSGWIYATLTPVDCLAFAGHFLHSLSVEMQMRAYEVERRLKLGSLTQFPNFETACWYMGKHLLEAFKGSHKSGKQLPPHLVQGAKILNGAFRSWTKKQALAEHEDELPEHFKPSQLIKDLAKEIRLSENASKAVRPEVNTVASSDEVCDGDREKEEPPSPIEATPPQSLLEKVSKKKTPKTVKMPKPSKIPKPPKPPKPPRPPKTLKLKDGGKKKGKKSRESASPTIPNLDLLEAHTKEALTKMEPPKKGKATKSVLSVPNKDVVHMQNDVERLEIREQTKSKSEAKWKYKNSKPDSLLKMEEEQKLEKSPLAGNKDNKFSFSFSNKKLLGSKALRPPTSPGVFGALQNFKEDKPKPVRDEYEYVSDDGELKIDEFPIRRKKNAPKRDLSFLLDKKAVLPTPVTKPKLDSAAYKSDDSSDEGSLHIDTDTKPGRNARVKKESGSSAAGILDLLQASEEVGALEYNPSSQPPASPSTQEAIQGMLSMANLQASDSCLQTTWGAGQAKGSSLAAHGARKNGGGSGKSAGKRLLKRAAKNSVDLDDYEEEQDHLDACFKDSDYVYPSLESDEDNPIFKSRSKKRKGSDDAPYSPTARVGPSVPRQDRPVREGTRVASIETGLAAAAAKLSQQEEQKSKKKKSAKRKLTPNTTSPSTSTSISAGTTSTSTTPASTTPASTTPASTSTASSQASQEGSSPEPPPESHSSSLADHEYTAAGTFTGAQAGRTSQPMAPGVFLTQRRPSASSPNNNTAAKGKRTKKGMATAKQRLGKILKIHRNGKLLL
# UniProt O43325: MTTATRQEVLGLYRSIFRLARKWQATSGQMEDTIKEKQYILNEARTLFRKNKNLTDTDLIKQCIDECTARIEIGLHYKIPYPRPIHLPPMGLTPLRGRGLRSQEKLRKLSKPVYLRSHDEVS
# Some of the results follow. Most values lie at the level of the controls, where differences are scatter.
# Compound: Cc1nc(Nc2ncc(C(=O)Nc3c(C)cccc3Cl)s2)cc(N2CCN(CCO)CC2)n1 [dasatinib]
# Assay: log2 fold change of tryptic peptide abundance, ligand vs vehicle (limited proteolysis) (log2 ratio); higher = more trypsin-susceptible (destabilized)
# Conditions: ligand concentration: 5 uM; sample: K562 cleared lysate
row,Target,log2 fold change
1,"PRPF4 (peptide sequence: CVYTIPAHQNLVTGVK, peptide start residue: 441) (UniProt O43172)",-0.266
2,"EDF1 (peptide sequence: ETEELHHDR, peptide start residue: 64) (UniProt O60869)",0.129
3,"BCL2L11 (peptide sequence: QPSDVSSECDREGR, peptide start residue: 4) (UniProt O43521)",0.326
4,"ENSA (peptide sequence: AKYPSLGQKPGGSDFLMK, peptide start residue: 39) (UniProt O43768)",0.0416
5,"PAPSS1 (peptide sequence: TDAETLPALK, peptide start residue: 249) (UniProt O43252)",-0.335
6,"CLASP2 (peptide sequence: FKNYAELTVMK, peptide start residue: 1137) (UniProt O75122)",-0.195
7,"DHX15 (peptide sequence: ALVTGYFMQVAHLER, peptide start residue: 692) (UniProt O43143)",0.313
8,"ERI3 (peptide sequence: NGLLDMNK, peptide start residue: 289) (UniProt O43414)",-0.141
9,"PHF2 (peptide sequence: GSSLAAHGAR, peptide start residue: 822) (UniProt O75151)",-0.102
10,"LYRM1 (peptide sequence: KWQATSGQMEDTIKEK, peptide start residue: 22) (UniProt O43325)",0.392

# Two neighbouring entries already listed, for reference:
row,Target,log2 fold change
5,"PAPSS1 (peptide sequence: TDAETLPALK, peptide start residue: 249) (UniProt O43252)",-0.335
6,"CLASP2 (peptide sequence: FKNYAELTVMK, peptide start residue: 1137) (UniProt O75122)",-0.195
